The supplement of paper PMC7666118
The list shows a part of the results.

By UniProt entry, the sequences of proteins in these tests, tags left out. Where a name states a change or a piece, a line headed by the entry shows the natural chain unless it says otherwise.
UniProt P80303: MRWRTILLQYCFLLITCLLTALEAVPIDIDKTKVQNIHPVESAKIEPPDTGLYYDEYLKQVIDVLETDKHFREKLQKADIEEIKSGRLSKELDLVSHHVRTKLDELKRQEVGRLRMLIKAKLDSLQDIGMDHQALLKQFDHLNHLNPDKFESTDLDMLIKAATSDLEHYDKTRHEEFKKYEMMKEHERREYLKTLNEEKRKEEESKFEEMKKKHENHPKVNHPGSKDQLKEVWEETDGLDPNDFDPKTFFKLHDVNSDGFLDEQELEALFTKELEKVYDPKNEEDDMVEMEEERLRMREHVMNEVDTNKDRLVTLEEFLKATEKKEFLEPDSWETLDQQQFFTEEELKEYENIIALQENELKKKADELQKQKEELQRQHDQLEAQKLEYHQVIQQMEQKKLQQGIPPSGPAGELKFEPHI
UniProt Q8TEM1: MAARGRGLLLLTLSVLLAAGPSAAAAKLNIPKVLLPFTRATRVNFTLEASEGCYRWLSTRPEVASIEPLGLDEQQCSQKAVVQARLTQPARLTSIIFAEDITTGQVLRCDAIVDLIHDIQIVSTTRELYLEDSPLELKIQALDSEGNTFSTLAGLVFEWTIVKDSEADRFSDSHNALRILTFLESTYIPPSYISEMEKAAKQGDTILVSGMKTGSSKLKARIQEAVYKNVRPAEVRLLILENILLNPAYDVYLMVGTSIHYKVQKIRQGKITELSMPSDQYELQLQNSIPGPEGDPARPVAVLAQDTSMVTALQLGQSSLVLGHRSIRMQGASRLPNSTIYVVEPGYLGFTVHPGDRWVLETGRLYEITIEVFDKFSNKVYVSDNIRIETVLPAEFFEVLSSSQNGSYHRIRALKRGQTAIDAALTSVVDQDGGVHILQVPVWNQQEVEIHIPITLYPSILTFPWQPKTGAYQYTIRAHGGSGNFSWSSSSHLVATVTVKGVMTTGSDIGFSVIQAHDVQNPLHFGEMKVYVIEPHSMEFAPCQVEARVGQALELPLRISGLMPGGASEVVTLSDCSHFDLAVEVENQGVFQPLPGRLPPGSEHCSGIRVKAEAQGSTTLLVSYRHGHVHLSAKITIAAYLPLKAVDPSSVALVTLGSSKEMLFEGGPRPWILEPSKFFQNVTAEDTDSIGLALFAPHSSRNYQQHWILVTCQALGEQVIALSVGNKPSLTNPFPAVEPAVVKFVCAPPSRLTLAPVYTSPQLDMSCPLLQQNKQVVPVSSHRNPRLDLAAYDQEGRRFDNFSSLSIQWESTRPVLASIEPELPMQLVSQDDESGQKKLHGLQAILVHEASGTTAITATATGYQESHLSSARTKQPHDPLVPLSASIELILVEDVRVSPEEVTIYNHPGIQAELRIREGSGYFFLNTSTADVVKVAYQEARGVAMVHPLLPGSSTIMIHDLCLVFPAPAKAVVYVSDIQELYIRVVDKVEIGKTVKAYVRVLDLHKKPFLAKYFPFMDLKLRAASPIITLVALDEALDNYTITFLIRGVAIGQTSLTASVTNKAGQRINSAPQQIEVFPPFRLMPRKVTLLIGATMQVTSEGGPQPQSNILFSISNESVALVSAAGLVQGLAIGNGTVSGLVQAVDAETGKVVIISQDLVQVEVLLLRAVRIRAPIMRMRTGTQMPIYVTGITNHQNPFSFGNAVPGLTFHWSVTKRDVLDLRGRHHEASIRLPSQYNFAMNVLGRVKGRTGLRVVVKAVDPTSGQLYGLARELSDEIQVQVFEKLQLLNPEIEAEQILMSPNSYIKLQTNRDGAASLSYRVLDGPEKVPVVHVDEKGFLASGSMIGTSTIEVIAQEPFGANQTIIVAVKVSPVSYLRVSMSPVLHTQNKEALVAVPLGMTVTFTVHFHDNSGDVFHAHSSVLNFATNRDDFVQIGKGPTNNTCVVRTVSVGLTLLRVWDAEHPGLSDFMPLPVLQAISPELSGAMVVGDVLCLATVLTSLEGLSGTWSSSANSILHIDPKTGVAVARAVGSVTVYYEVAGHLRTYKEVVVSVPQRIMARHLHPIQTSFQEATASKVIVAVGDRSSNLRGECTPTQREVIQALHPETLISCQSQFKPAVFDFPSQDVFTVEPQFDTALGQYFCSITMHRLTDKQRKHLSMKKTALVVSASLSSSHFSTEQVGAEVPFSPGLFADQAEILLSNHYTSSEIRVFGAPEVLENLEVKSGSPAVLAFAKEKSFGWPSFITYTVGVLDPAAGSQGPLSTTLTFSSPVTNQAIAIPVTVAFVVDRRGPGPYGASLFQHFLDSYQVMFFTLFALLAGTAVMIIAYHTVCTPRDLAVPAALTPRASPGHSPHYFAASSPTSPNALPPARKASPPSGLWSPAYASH
UniProt Q86Y39, whole entry: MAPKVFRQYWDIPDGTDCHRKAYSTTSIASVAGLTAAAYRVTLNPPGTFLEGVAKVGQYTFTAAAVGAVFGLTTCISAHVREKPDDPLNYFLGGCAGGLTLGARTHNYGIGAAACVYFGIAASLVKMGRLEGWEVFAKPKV
UniProt Q9NX14, whole entry: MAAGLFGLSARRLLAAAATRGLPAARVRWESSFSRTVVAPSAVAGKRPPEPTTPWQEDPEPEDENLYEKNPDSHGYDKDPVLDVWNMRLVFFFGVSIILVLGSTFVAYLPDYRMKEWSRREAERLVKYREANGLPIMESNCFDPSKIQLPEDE
UniProt P43490: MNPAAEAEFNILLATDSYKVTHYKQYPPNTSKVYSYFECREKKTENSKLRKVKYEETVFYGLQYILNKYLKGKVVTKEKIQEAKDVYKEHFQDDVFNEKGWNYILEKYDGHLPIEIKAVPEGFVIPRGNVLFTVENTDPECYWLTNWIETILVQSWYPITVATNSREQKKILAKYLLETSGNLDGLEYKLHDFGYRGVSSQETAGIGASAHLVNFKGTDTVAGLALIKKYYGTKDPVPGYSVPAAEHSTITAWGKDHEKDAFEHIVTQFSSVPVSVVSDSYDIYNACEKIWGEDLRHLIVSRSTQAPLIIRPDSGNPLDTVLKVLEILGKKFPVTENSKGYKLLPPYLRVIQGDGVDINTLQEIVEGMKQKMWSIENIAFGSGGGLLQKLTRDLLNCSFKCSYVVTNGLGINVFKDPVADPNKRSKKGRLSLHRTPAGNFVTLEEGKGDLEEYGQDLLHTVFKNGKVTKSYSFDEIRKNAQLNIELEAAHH
UniProt Q96PY6: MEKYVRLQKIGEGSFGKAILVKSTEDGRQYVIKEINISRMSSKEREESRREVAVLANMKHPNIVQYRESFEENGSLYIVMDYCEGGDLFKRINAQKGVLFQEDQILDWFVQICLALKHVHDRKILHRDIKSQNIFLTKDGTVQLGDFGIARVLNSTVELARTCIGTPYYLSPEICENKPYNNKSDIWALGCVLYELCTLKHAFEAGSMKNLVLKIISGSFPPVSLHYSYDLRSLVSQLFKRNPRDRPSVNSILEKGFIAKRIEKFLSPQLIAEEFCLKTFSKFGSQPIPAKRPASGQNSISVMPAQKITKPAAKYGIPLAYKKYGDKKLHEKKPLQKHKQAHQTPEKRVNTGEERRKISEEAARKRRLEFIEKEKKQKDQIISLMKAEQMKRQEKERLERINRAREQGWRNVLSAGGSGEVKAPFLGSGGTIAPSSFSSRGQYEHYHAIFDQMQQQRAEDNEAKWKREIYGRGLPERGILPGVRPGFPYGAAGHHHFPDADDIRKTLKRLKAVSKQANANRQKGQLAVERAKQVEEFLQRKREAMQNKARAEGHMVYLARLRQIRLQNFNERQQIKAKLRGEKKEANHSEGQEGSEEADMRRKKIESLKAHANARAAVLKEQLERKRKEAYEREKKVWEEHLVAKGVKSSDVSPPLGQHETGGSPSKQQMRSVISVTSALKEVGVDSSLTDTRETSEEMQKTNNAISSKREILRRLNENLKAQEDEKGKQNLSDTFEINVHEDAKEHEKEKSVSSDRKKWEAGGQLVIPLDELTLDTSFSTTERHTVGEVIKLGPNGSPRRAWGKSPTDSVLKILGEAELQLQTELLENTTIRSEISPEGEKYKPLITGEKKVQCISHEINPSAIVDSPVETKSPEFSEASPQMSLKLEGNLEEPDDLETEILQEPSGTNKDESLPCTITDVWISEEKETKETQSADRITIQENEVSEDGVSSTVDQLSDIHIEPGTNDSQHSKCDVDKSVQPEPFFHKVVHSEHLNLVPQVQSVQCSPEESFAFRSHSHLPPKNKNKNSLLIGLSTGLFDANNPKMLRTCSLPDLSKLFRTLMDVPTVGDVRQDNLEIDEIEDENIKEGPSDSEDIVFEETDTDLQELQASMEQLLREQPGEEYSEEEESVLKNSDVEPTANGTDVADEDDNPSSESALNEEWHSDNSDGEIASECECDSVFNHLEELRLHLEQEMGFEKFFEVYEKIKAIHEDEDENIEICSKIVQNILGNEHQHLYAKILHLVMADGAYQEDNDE
UniProt Q8NDH3: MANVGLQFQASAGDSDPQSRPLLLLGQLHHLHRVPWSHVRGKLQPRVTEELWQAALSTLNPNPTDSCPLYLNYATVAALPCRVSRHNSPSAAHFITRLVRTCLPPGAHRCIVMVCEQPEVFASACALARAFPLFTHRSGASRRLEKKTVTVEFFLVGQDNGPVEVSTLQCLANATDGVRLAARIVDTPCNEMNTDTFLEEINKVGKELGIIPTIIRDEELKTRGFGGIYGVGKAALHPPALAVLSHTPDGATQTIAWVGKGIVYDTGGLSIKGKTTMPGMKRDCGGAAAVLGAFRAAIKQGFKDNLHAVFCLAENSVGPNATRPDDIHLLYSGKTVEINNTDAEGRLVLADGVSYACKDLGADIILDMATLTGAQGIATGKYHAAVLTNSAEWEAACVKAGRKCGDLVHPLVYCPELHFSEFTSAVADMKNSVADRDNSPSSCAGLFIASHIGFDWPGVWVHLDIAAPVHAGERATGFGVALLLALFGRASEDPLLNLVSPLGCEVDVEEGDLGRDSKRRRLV
UniProt Q96IV0: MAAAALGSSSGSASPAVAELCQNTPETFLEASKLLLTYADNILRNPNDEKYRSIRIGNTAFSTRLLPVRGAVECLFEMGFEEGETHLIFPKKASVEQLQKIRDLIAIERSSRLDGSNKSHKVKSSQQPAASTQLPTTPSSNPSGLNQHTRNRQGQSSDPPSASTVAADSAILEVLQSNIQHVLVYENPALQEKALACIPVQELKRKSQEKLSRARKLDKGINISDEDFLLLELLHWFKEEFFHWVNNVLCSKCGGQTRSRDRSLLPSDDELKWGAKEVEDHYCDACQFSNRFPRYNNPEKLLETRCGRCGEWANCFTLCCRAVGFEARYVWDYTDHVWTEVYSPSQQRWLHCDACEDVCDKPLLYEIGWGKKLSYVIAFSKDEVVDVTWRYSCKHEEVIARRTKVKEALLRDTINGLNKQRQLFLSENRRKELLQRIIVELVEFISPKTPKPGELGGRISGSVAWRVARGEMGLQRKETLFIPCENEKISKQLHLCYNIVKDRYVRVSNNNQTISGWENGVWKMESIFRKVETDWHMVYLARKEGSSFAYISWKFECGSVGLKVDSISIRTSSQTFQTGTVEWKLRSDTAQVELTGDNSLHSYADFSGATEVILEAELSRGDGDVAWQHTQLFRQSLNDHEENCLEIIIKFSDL
UniProt Q86UY8: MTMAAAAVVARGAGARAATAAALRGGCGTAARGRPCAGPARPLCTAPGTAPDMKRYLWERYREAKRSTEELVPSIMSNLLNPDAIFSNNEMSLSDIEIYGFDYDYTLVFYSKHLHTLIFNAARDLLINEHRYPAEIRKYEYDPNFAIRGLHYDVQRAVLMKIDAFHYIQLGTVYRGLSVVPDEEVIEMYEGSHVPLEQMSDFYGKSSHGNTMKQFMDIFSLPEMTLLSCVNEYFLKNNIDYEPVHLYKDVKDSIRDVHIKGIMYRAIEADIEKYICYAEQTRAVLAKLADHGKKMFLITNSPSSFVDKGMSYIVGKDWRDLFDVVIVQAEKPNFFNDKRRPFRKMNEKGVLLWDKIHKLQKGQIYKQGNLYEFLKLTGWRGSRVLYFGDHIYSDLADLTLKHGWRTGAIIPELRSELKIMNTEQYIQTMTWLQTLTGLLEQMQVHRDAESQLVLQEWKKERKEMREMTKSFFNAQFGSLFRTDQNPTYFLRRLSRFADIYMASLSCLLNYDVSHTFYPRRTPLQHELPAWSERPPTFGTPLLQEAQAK
UniProt Q96IY1: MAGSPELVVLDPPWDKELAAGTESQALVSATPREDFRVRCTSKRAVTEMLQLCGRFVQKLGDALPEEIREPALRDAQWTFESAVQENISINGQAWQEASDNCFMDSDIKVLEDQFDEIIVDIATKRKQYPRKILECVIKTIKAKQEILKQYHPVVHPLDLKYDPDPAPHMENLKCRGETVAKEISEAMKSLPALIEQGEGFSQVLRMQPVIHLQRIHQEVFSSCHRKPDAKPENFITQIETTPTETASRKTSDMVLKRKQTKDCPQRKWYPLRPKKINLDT

The targets below were run with COc1ccc(Cn2ccc3cc(C)c(C(=O)NO)cc32)cc1 (assay: dose-dependent thermal stabilisation call (2D-TPP, DLPTP, 10% FDR) (binary (1 = stabilised)); higher = stabilised by the compound). Details: system: HL-60 intact cells; concentration range 0.04-10 µM.
Method: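 2D thermal proteome profiling in intact HL-60 cells treated with BRD-3811 (0, 0.04, 0.29, 2, 10 uM) for 90 min at 37 C, then heated 3 min at one of 12 temperatures (42-63.9 C). Soluble protein was quantified by TMT10 MS. The value is the DLPTP call of the paper: dose-dependent thermal stabilisation over all temperatures at 10% FDR (F-test of a dose-response against a flat model); one experiment, one call per tested protein.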

Target	dose-dependent thermal stabilisation call
NEU1 (UniProt Q99519)	inactive: 0
NKRF (UniProt O15226)	inactive: 0
NOSIP (UniProt Q9Y314)	inactive: 0
NDC80 (UniProt O14777)	inactive: 0
NUDCD1 (UniProt Q96RS6)	inactive: 0
NHEDC2 (UniProt Q86UD5)	inactive: 0
NAT10 (UniProt Q9H0A0)	inactive: 0
NUCB2 (UniProt P80303)	inactive: 0
NRAS (UniProt P01111)	inactive: 0
NFX1 (UniProt Q12986)	inactive: 0
NR2C2 (UniProt P49116)	inactive: 0
NUP210 (UniProt Q8TEM1)	inactive: 0
NDUFA11 (UniProt Q86Y39)	inactive: 0
NR2C1 (UniProt P13056)	inactive: 0
NUPL2 (UniProt O15504)	inactive: 0
NDUFB11 (UniProt Q9NX14)	inactive: 0
NAMPT (UniProt P43490)	inactive: 0
NDNL2 (UniProt Q96MG7)	inactive: 0

Target	dose-dependent thermal stabilisation call
NP (UniProt P00491)	inactive: 0
NF2 (UniProt P35240)	inactive: 0
NRM (UniProt Q8IXM6)	inactive: 0
NEK1 (UniProt Q96PY6)	inactive: 0
NPEPL1 (UniProt Q8NDH3)	inactive: 0
NUP62 (UniProt P37198)	inactive: 0
NSMCE1 (UniProt Q8WV22)	inactive: 0
NDUFB3 (UniProt O43676)	inactive: 0
NDUFS3 (UniProt O75489)	inactive: 0
NDUFB1 (UniProt O75438)	inactive: 0
NGLY1 (UniProt Q96IV0)	inactive: 0
NRBF2 (UniProt Q96F24)	inactive: 0
NUP214 (UniProt P35658)	inactive: 0
NARG2 (UniProt Q659A1)	inactive: 0
NPM1 (UniProt P06748)	inactive: 0
NT5DC3 (UniProt Q86UY8)	inactive: 0
NUP107 (UniProt P57740)	inactive: 0
NSL1 (UniProt Q96IY1)	inactive: 0

Single entries from the results shown.
NDUFB3 (UniProt O43676) | dose-dependent thermal stabilisation call: inactive: 0
NSMCE1 (UniProt Q8WV22) | dose-dependent thermal stabilisation call: inactive: 0
